The source of these data is PMC10163288.

The list shows a part of the results.

The chains are these.
B1: il10ra_site1_sap_7_mot_HHH_b2_02690_000000247_0001_1_16_H_._HHH_b2_04358_0001_0000700065_0000001_0_0001 (protein)
chain: SSSDSAREMYELSRRIAELIAQGDKEEAEKLLEELEELAEEENDPIIRFLVELLRRMIENISSSS
B2: il10ra_site1_normal_mot_HHH_b1_02464_000000069_0001_1_19_H_._HHH_b2_06057_0001_0000100006_0000001_0 (protein)
chain: SSSSDVEERVEELEEEAERAIERDDDELLSEILLELARLAFESGDERIDELAIELARLLKGSSSS
B3: il10ra_site1_normal_mot_HHH_b2_03220_af2_000000223_0001_23_40_H_._HHH_b1_07685_af2_0001_0000500052_0000001_0 (protein)
chain: SSSSTEEVWELLREALELLANGNPEEAQEVAEEALRIAEEAGSRALRHNVRFLLRAIELRSSSSS
B4: il10ra_site1_normal_mot_HHH_b1_00992_000000182_0001_23_40_H_._HHH_b1_04461_0001_0000600029_0000001_0_af2pred_0001 (protein)
chain: SSSSSSKRLELLLRLAKWLLEQGNPEVAREILRAAIELAEREGDPELLEQLEELLEEIENSSSSS
B5: il10ra_site1_normal_mot_HHH_b2_07569_000000265_0001_38_56_H_._HHH_b2_01469_af2_0001_0000300026_0000001_0 (protein)
chain: SSSSDEEEVKEKVEELLEEAKRISDPRERARALQEATHLAFELQDEELVQEVWKVAKELFSSSSS
B6: il10ra_site1_sap_7_mot_HHH_b2_07748_af2_000000237_0001_1_20_H_._HHH_b1_00585_af2_0001_0000100004_0000001_0_0001 (protein)
chain: SSSSDTLEHSVKFAERAVEIAEKQGDEERARFILRELLKHLERARNEELFEEVRRLLEELESSSS
B7: il10ra_site1_normal_mot_HHH_b2_03220_af2_000000223_0001_23_40_H_._HHH_b2_04284_0001_0000200013_0000001_0_af2pred_0001 (protein)
chain: SSSSSELREAFELLRKAIELLQKGNEEEAREVLERVKEIAEEANDPLLKRIAEAIERAVNSSSSS
B8: il10ra_site1_normal_mot_HHH_b1_05357_000000034_0001_23_39_H_._HHH_b2_06846_af2_0001_0000200002_0000001_0_af2pred_0001 (protein)
chain: SSSSSSSEEEVEELLEEAEKIEDRHEVAYLLVRAFALAYRNNDPELRELVEKVAKELLSSSSSSS
B9: il10ra_site1_sap_28_mot_HHH_b2_01776_000000118_0001_38_52_H_._HHH_b1_02180_af2_0001_0000400031_0000001_0_0001 (protein)
chain: SSSSSELAHIAVEVWELQKEGDEERIEELLERLEELLEKTGDPYVETVLTFAESVLRALRSSSSS
B10: il10ra_site1_normal_mot_HHH_b2_00612_000000251_0001_1_14_H_._HHH_b2_07853_0001_0000100004_0000001_0 (protein)
chain: SSSSSSVEIIKKLAEEILELVEEGNEEEAEKLTEEAKEIAEQLGDQLAAETVEYLLRLQLSSSSS
B11: il10ra_site1_normal_mot_HHH_b2_00984_000000042_0001_1_20_H_._ems_3hC_921_0001_0000100002_0000001_0 (protein)
chain: SSPEEALQLLFEATQLALENSDQELLQAVWRLIHKLVEARENNDEEKVEEVFELAREILEELQSS
B12: il10ra_site1_normal_mot_HHH_b1_05357_000000034_0001_23_39_H_._HHH_b2_06120_0001_0000300014_0000001_0 (protein)
chain: SSSSSVEEEFRRLEEELEEALRNGDRELAAHIVIRIYALVNQNNNEELEQRAKELSRLVANSSSS
B13: il10ra_site1_sap_15_mot_HHH_b1_06731_af2_000000295_0001_1_19_H_._HHH_b2_01214_0001_0000300016_0000001_0_0001 (protein)
chain: SSSSSDEEREVRQKVEALLWFARYVDPRAREIMLKRAREIAEQNNDEELRELVEEVAEELSSSSS
B14: il10ra_site1_sap_22_mot_HHH_b2_04681_000000155_0001_43_57_H_._HHH_b2_07873_af2_0001_0000100003_0000002_0_0001_af2pred_0001 (protein)
chain: SSSSSDEEVRERVEELLEELEHVSPEEQTRLLREAARLAAEAEDPELKELVLEALEKVLSSSSSS
B15: il10ra_site1_sap_14_mot_HHH_b1_06789_af2_000000041_0001_1_20_H_._HHH_b2_04588_af2_0001_0000300012_0000001_0_0001 (protein)
chain: SSSSSAEEAFRLAEEVIKRLREITDPEEIEELAEEVRRELEELGNPEAARQIEHLARLERSSSSS
B16: il10ra_site1_sap_16_mot_HHH_b2_07144_000000289_0001_1_18_H_._HHH_b2_06430_0001_0000300020_0000002_0_0001_af2pred_0001 (protein)
chain: SSSSSDVEEEAKRLYRELRELIEEGDEEELRRVEKELLELALRHRDREAAKALLRIYRLHSSSSS
B17: il10ra_site1_sap_19_mot_HHH_b2_03284_af2_000000155_0001_1_21_H_._HHH_b1_04583_0001_0000100015_0000001_0_0001_af2pred_0001 (protein)
chain: SSSSDKELAERAVRLLLRAAREISDEEVVKRSFKFARWVAEEANDPELERLVEEVFEELQSSSSS
B18: il10ra_site1_sap_17_mot_HHH_b2_00988_000000064_0001_1_19_H_._HHH_b2_03322_af2_0001_0000700023_0000001_1_0001 (protein)
chain: SSSSDKEEELRELLEELERLAEEGDLERFAKVAKRVIRLAFQLGDEEILQLLWELLKKIASSSSS

The assay has as its target il10ra, Q13651. In words: yeast display titration.
In the case of B1, the “apparent Kd” value is “inactive: no binding seen”. As to B2, the “apparent Kd” value is “inactive: no binding seen”. The same measure for B3: “inactive: no binding seen”; for B4: “inactive: no binding seen”. The entry for B5 is “inactive: no binding seen”. The same measure for B6: “inactive: no binding seen”; for B7: “inactive: no binding seen”. Regarding B8, the “apparent Kd” value was “inactive: no binding seen”. The same measure for B9: “inactive: no binding seen”; for B10: “inactive: no binding seen”.

Take B11: the “apparent Kd” value was “inactive: no binding seen”. The entry for B12 is “inactive: no binding seen”; for B13 it is “inactive: no binding seen”; for B14 it is “inactive: no binding seen”.

Take B15: the “apparent Kd” value is “inactive: no binding seen”. For B16, the “apparent Kd” value was “inactive: no binding seen”. In the case of B17, the “apparent Kd” value is “inactive: no binding seen”. The same measure for B18: “inactive: no binding seen”.
